A number of entries come with more than one value. They are shown here; other results are not. There may be further records. The records of an entry appear to be repeats on other runs, samples or individuals.
Tests used:
[1] = biological target: F295A mutant PDE5 GAFa domain biosensor (Homo sapiens, UniProt O76074, F295A); assay: BRET-based GAFa domain conformational biosensor, cGMP dose-response (F295A); conditions: F295A vs WT GAFa domain biosensor
Excerpt: (§1) Having observed alterations in the structural dynamics in the GAFa domain of PDE5 upon L267A and F295A mutations using MD simulations, we then proceeded to determine the impact of these mutations experimentally. […] (Fig. 4A). Broadly, these changes include a close juxtaposition of the sheet β3 and helix α4 leading to a “closing” of the cGMP binding site, an “inward” movement of sheet β1 and β2 towards the cGMP binding site and an “outward” movement of the loop β2/β3 (Fig. 4A, left panel). Additionally, cGMP binding is associated with a close juxtapositioning of helices α2 and α5 at the N- and C-termini of the GAFa domain, likely associated with the transduction of the allosteric signal from the GAFa domain to the catalytic domain in PDE5 (Fig. 4A, right panel). We decided to take advantage of the latter to monitor cGMP-binding induced conformational change in the GAFa domain through an increase in the BRET efficiency of the GAFa domain biosensor that we have described previously[24] (Fig. 4B). BRET is a biophysical technique that involves resonance energy transfer between a bioluminescent donor and a fluorescent acceptor, the extent of which is dependent on the spectral overlap, distance, and relative orientation between the two reporters. […]

[2] = biological target: L267A mutant PDE5 GAFa domain biosensor (Homo sapiens, UniProt O76074, L267A); assay: BRET-based GAFa domain conformational biosensor, cGMP dose-response (L267A); conditions: L267A vs WT GAFa domain biosensor
Excerpt: as §1

## Nc1nc2c(ncn2[C@@H]2O[C@@H]3COP(=O)(O)O[C@H]3[C@H]2O)c(=O)[nH]1 [cGMP]
[1]
  fold higher EC50 than the WT protein: 10,000 fold and more than 10000 fold
[2]
  fold higher EC50 than the WT protein: ~ 5800 fold and more than 5000 fold

Reference: article PMC11977230, “Coevolving residues distant from the ligand binding site are involved in GAF domain function” (Communications Chemistry, 2025)
